Measured values published in patent US20060240404A1, “Methods of isolating genes encoding proteins of specific function and of screening for pharmaceutically active agents” (Yeda Research And Development Co. Ltd., priority 2000, published 2006).
Some results were stated once for a whole list of compounds, not compound by compound. For at least one compound, name, drawing or mass did not settle the structure.

System: translocation of fibrillar adhesion in GFP-tensin transfected HFF cells
Test: Correlation analysis of fibrillar adhesion dynamics in time-lapse movies of GFP-tensin transfected cells treated with acto-myosin inhibitors
Format: cell-based
Details: after wash-out
Procedure: HFF cells were analyzed by time-lapse fluorescence recording starting 24 hours after transfection with GFP-tensin as described (10). During the recording different inhibitors of acto-myosin contractility were added ([…]) at the time point indicated by the first arrow, and washed out at the time point indicated by the second arrow. In each digital movie, a constant square frame (I) of […] containing only fibrillar adhesions without focal contacts was acquired as a function of time. Correlation was calculated between pairs of subsequent time points (It and It+1) for the duration of the movie. Correlation between It and It+1 was calculated (according to Eq. 1, where N=It and M=It+1). The graphs present this correlation as a function of time (t); and
The basic idea of this novel approach is that correlation is a quantitative measure of image similarity. Correlation is defined as the normalized pixel-by-pixel multiplication of two normalized images M and N (Eq. 1), and it is higher when the similarity between the two images is higher. Thus, if, and only if, N and M are identical images the correlation gets its maximum value of 1. When N equals −M (inverted images) the correlation reaches its minimum value, −1, and when N and M are totally unrelated images the correlation approaches zero. […]

O=S(=O)(c1cccc2c(I)cccc12)N1CCCNCC1 [ML-7]
recovery of fibrillar adhesion translocation after washing-out the drug: > 80 min
